Assay results from patent US7582437 (JAPAN SCIENCE AND TECHNOLOGY AGENCY, dated 2009).
No constants are given. Whether binding was seen depends on the method and setting. In cells and extracts the contact can be indirect. Some binding calls cover weakened binding; strength is not graded here.

Chains of the proteins cited; added tags and fusions are not shown. Lines headed by an entry give the natural chain unless they say otherwise; changes in a name come on top. Residues count along the entry.
UniProt O15455, residues 24-904: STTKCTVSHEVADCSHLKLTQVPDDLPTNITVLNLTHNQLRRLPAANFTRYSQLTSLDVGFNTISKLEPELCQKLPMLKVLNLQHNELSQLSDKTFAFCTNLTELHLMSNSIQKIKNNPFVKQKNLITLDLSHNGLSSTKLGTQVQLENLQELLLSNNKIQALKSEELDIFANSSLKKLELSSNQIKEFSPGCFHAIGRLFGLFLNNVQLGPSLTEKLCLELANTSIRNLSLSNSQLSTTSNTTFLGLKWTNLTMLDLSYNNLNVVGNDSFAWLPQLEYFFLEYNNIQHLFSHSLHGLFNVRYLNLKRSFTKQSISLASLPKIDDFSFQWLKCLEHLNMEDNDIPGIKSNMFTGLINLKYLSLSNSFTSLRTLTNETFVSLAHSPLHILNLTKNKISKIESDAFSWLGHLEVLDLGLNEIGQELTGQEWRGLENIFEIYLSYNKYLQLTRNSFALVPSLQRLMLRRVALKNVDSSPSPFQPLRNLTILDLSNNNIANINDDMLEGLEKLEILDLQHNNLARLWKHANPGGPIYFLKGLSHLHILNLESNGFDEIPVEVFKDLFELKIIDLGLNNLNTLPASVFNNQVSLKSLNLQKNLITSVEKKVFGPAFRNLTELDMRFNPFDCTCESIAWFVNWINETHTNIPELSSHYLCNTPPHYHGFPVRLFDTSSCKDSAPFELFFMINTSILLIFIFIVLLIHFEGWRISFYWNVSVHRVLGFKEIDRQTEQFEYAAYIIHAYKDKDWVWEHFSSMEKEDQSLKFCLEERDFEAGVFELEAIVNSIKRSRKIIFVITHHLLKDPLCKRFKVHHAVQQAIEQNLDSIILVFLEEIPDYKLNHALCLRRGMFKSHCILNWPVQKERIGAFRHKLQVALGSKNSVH
UniProt Q8IUC6: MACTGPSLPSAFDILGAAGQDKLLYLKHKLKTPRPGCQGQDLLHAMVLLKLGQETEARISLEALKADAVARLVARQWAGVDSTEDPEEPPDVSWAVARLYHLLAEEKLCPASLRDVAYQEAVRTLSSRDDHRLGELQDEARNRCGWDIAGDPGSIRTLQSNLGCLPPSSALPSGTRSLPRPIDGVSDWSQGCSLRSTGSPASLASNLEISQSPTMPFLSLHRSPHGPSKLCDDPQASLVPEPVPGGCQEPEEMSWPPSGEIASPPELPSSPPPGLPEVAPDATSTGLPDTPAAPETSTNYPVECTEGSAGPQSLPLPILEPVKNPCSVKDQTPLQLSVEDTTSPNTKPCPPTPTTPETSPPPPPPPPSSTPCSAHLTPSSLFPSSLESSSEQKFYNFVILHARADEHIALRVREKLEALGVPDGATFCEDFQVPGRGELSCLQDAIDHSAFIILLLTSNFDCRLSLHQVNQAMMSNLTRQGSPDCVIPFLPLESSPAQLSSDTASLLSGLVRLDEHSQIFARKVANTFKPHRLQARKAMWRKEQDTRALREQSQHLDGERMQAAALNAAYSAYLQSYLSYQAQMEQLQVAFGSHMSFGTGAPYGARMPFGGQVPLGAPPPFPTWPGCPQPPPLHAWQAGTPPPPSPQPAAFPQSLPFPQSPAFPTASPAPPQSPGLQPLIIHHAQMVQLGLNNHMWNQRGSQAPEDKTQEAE

How the values were obtained:
[1] = target: flag-tagged human TLR3 (human) (UniProt O15455); test: co-immunoprecipitation in HEK293 cells
[2] = target: flag-tagged human TLR3 (human) (UniProt O15455); test: co-immunoprecipitation from HEK293 lysates
[3] = target: flag-tagged human TLR3 (human) (UniProt O15455); test: co-immunoprecipitation and yeast two-hybrid, conclusion
[4] = target: flag-tagged human TLR3 (human) (UniProt O15455); test: co-immunoprecipitation with monoclonal antibody TLR3.7 against human TLR3
[5] = target: flag-tagged human TLR3 (human) (UniProt O15455); test: co-immunoprecipitation from HEK293 lysates with anti-Flag M2, anti-HA blot
[6] = target: flag-tagged human TLR3 (human) (UniProt O15455); test: co-immunoprecipitation from HEK293 lysates with anti-Flag antibody, anti-HA blot
[7] = target: flag-tagged human TLR3 (human) (UniProt O15455); test: co-immunoprecipitation with anti-Flag M2, anti-HA blot (FIG. 10, middle panel, lane 2)

binding [1]: binds
binding [2]: binds
binding [3]: binds
binding [4]: binds
binding [5]: binds
binding [6]: binds
binding [7]: binds
Substance: HA-tagged human TICAM-1 (from UniProt Q8IUC6 1-712)
